# Source: US20170051280A1
# Results are given in words; binding and its absence hold for the method and conditions named. Binding seen in cells or lysates may run through a third protein. Some binding calls cover weakened binding; strength is not graded here.
# T1: p22phox in mouse retina (p47phox-/- and wild type mice, p17 OIR) (mouse) (UniProt Q61462)
# T1 sequence (looked up): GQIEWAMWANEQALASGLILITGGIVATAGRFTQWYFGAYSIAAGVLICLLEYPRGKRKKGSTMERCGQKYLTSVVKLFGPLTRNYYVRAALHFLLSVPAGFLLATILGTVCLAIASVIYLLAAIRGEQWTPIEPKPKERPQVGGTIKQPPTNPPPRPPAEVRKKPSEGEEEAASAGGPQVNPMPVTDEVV
# B1: NOX4 in mouse retina (p47phox-/- and wild type mice, p17 OIR) (enzyme, UniProt Q9JHI8 1-578, looked up)
# chain: MAVSWRSWLANEGVKHLCLLIWLSLNVLLFWKTFLLYNQGPEYYYIHQMLGLGLCLSRASASVLNLNCSLILLPMCRTVLAYLRGSQKVPSRRTRRLLDKSKTLHITCGVTICIFSGVHVAAHLVNALNFSVNYSEDFLELNAARYQNEDPRKLLFTTIPGLTGVCMVVVLFLMVTASTYAIRVSNYDIFWYTHNLFFVFYMLLLLHVSGGLLKYQTNVDTHPPGCISLNQTSSQNMSIPDYVSEHFHGSLPRGFSKLEDRYQKTLVKICLEEPKFQAHFPQTWIWISGPLCLYCAERLYRCIRSNKPVTIISVINHPSDVMELRMIKENFKARPGQYIILHCPSVSALENHPFTLTMCPTETKATFGVHFKVVGDWTERFRDLLLPPSSQDSEILPFIHSRNYPKLYIDGPFGSPFEESLNYEVSLCVAGGIGVTPFASILNTLLDDWKPYKLRRLYFIWVCRDIQSFQWFADLLCVLHNKFWQENRPDFVNIQLYLSQTDGIQKIIGEKYHTLNSRLFIGRPRWKLLFDEIAKCNRGKTVGVFCCGPSSISKTLHSLSNRNNSYGTKFEYNKESFS
# Biological target: T1, p22phox in mouse retina (p47phox-/- and wild type mice, p17 OIR) (mouse)
# Assay: co-immunoprecipitation from mouse retina (p47phox-/- vs WT, p17 OIR), figure legend FIG. 10A
binder,measurement,value
B1,binding,binds
